Two molecules from article PMC10239695 can be followed below.

The chains behind the UniProt entries cited, without tags or fusion partners.
UniProt A0A096ZNX6: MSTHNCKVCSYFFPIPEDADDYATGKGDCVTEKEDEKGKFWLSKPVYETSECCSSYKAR

No constants are given. Whether binding was seen depends on the method and setting. Some entries that bind do so weakly or less than the wild type. For some assays here: Sequences can lack the tags named with a protein.

The target of test [1] is 4-isopropylbenzylsuccinate synthase alpha subunit (IBSSα), C-terminally His6 tagged. The test can be described thus: co-purification (IMAC on TALON resin); α subunit C-terminally His6 tagged, co-expressed with the γ subunit in E. coli; anaerobic TALON purification from clarified lysate, 50 mM HEPES pH 8.0, 300 mM NaCl; SDS-PAGE of the purified complex.
Test [2] concerns the target T1, Benzylsuccinate synthase alpha subunit (BSSα), C-terminally His6 tagged (UniProt O68395).
T1 sequence: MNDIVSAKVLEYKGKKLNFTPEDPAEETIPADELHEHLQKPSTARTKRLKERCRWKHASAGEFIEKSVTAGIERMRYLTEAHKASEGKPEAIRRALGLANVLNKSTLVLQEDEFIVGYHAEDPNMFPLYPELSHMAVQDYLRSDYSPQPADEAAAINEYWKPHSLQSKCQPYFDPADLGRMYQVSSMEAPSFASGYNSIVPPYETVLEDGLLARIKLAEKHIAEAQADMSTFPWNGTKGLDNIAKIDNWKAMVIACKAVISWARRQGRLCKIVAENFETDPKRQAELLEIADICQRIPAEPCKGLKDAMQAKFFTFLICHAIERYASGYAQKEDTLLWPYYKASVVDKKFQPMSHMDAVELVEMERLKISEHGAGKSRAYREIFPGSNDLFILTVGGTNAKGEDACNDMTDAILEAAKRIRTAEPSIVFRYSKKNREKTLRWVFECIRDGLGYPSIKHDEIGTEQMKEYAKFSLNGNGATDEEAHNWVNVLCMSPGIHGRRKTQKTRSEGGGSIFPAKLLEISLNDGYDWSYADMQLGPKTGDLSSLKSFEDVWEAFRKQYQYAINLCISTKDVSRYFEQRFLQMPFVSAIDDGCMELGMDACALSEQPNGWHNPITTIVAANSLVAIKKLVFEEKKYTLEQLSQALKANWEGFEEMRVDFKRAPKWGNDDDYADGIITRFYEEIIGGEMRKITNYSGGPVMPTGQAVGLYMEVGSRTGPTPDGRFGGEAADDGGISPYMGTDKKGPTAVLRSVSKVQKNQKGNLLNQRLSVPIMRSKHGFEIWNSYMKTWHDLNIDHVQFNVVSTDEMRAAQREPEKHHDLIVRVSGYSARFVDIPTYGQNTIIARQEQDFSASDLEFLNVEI
The description is as above.

“4-isopropylbenzylsuccinate synthase gamma subunit (IBSSγ) (from UniProt A0A096ZNX6 1-59)”: the binding entry in test [1] was “binds”.

B1: Benzylsuccinate synthase gamma subunit (BSSγ) (protein, UniProt O68394 1-60)
chain: MGTTTCKQCANFFPVPKDADDYEAGKADCVREKEDEKGKYWLSKPIFENSAQCEAFQTKR
B1: the binding result in test [2] is on record as “binds”.
